Assay results taken from paper doi:10.1101/313882.
Where two headings read alike, the source gives them in different places. No constants are given. Whether binding was seen depends on the method and setting. Some results given as binding are weak or reduced against the parent protein; the word gives no strength. Tags and fused reporters may be left off the sequences shown.

Protein sequences, listed by entry. Tags and fused reporters are not part of them. Lines headed by an entry give the natural chain unless they say otherwise; changes in a name come on top. Residues count along the entry.
UniProt P05648, 1-82: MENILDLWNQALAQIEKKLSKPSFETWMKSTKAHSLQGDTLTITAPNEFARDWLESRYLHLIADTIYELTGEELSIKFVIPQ

Tests used:
Test in all cases: two-hybrid
[1] = molecular target: T1, DnaB winged helix domain (B. subtilis), two-hybrid fusion (B. subtilis) (UniProt P07908)
T1 sequence: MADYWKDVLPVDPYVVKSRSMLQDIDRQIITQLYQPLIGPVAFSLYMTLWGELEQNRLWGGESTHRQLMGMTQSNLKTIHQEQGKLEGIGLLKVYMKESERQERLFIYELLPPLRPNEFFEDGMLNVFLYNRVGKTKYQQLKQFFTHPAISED

[2] = molecular target: T2, DnaB second C-terminal domain (B. subtilis), two-hybrid fusion (B. subtilis) (UniProt P07908)
T2 sequence: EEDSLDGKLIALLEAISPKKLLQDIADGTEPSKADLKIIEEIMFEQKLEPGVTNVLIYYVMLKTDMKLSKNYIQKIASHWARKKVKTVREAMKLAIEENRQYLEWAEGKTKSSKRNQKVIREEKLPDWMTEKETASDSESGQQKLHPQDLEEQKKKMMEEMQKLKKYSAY

[3] = molecular target: T1, DnaB winged helix domain (B. subtilis), two-hybrid fusion (B. subtilis); remark: listed apart in the source
[4] = molecular target: T3, full-length DnaB (B. subtilis), two-hybrid fusion (B. subtilis) (UniProt P07908)
T3 sequence: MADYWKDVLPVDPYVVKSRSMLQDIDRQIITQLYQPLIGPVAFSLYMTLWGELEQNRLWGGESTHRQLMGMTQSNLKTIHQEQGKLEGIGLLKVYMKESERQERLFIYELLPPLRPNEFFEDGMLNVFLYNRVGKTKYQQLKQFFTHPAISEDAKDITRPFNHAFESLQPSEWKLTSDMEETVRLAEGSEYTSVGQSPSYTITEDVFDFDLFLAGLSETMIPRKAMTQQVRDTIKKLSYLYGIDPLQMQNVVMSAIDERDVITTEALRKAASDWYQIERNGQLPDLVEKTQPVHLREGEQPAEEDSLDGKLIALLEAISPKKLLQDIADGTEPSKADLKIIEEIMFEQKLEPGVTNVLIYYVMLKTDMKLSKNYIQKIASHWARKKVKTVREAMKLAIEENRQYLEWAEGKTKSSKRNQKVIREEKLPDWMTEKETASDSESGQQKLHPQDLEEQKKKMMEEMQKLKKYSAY

[5] = molecular target: T2, DnaB second C-terminal domain (B. subtilis), two-hybrid fusion (B. subtilis); remark: listed apart in the source
[6] = molecular target: T4, DnaB S371P gain-of-function variant (B. subtilis), two-hybrid fusion (B. subtilis) (UniProt P07908)
T4 sequence: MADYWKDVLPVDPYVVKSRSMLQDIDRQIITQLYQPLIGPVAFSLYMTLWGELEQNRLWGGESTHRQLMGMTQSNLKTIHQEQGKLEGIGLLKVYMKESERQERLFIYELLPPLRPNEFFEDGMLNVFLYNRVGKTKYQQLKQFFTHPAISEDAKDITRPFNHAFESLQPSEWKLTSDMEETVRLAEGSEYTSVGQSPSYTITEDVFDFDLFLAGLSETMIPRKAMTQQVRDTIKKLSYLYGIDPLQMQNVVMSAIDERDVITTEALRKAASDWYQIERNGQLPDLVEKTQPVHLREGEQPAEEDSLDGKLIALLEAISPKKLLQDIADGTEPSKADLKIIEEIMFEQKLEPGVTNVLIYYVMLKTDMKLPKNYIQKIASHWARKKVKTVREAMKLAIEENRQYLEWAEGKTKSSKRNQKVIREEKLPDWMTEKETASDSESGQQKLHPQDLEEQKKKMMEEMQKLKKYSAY

[7] = molecular target: DnaA^DI T26A (B. subtilis), two-hybrid fusion (B. subtilis) (UniProt P05648)
[8] = molecular target: DnaA domain I (B. subtilis), two-hybrid fusion (B. subtilis) (UniProt P05648)

B1: DnaD winged helix domain (B. subtilis), two-hybrid fusion (domain or fragment, UniProt P39787 1-128)
chain: MKKQQFIDMQEQGTSTIPNLLLTHYKQLGLNETELILLLKIKMHLEKGSYFPTPNQLQEGMSISVEECTNRLRMFIQKGFLFIEECEDQNGIKFEKYSLQPLWGKLYEYIQLAQNQTQERKAEGEQKS
binding [1]: binds
binding [2]: binds
binding [3]: binds
binding [4]: binds
binding [5]: binds

B2: DnaD^WHD ΔNT variant (B. subtilis), two-hybrid fusion (domain or fragment, UniProt P39787 19-128)
chain: NLLLTHYKQLGLNETELILLLKIKMHLEKGSYFPTPNQLQEGMSISVEECTNRLRMFIQKGFLFIEECEDQNGIKFEKYSLQPLWGKLYEYIQLAQNQTQERKAEGEQKS
binding [1]: binds
binding [2]: binds

B3: full-length DnaB (B. subtilis), two-hybrid fusion (protein, UniProt P07908 1-472)
chain: MADYWKDVLPVDPYVVKSRSMLQDIDRQIITQLYQPLIGPVAFSLYMTLWGELEQNRLWGGESTHRQLMGMTQSNLKTIHQEQGKLEGIGLLKVYMKESERQERLFIYELLPPLRPNEFFEDGMLNVFLYNRVGKTKYQQLKQFFTHPAISEDAKDITRPFNHAFESLQPSEWKLTSDMEETVRLAEGSEYTSVGQSPSYTITEDVFDFDLFLAGLSETMIPRKAMTQQVRDTIKKLSYLYGIDPLQMQNVVMSAIDERDVITTEALRKAASDWYQIERNGQLPDLVEKTQPVHLREGEQPAEEDSLDGKLIALLEAISPKKLLQDIADGTEPSKADLKIIEEIMFEQKLEPGVTNVLIYYVMLKTDMKLSKNYIQKIASHWARKKVKTVREAMKLAIEENRQYLEWAEGKTKSSKRNQKVIREEKLPDWMTEKETASDSESGQQKLHPQDLEEQKKKMMEEMQKLKKYSAY
binding [4]: binds

B4: DnaD^WHD F51A (B. subtilis), two-hybrid fusion (domain or fragment, UniProt P39787 1-128)
chain: MKKQQFIDMQEQGTSTIPNLLLTHYKQLGLNETELILLLKIKMHLEKGSYAPTPNQLQEGMSISVEECTNRLRMFIQKGFLFIEECEDQNGIKFEKYSLQPLWGKLYEYIQLAQNQTQERKAEGEQKS
binding [4]: binds

B5: DnaD^WHD I83A (B. subtilis), two-hybrid fusion (domain or fragment, UniProt P39787 1-128)
chain: MKKQQFIDMQEQGTSTIPNLLLTHYKQLGLNETELILLLKIKMHLEKGSYFPTPNQLQEGMSISVEECTNRLRMFIQKGFLFAEECEDQNGIKFEKYSLQPLWGKLYEYIQLAQNQTQERKAEGEQKS
binding [4]: binds

B6: full-length DnaD (B. subtilis), two-hybrid fusion (protein, UniProt P39787 1-232)
chain: MKKQQFIDMQEQGTSTIPNLLLTHYKQLGLNETELILLLKIKMHLEKGSYFPTPNQLQEGMSISVEECTNRLRMFIQKGFLFIEECEDQNGIKFEKYSLQPLWGKLYEYIQLAQNQTQERKAEGEQKSLYTIFEEEFARPLSPLECETLAIWQDQDQHDAQLIKHALKEAVLSGKLSFRYIDRILFEWKKNGLKTVEQAKIHSQKFRRVQAKQNEPQKEYKRQVPFYNWLEQ
binding [6]: binds

B7: full-length SirA (B. subtilis), two-hybrid fusion (protein, UniProt P45707 1-148)
chain: MERHYYTYLIKEEFANHYFGRESVMFELFQDYHWTSLEKQQYEMTEKQIQYITQPIPILHMHQRLKMNLNKTDYRQLDYIYRIALPKAKGHATFMMKEHMIEIVASGDYEAETIFFEVLRKVSPCFLAMDFNSKRYGWLNPVKERNFV
binding [7]: binds
binding [8]: binds
